Laboratory results: US20240247029A1 (VALORISATION HSJ, LIMITED PARTNERSHIP, priority 2020, published 2024)

Assay: general procedure: Fmoc solid-phase peptide synthesis; polystyrene Rink amide resin (75-100 mesh, 1% DVB, 0.5 mmol/g loading); HBTU
Conditions: whole synthesis

With “[(3R,4S)-4-(4′-(1,1-Dimethyl)aminomethyltriazolyl)Agl^3]-1” the isolated mass was 6 mg, the “crude LC-MS purity” value (LC-MS analysis with MeOH or MeCN gradients (0.1% FA), scale of the general procedure 50.0 μmol) was 73% and the “final LC-MS purity” value (LC-MS analysis with MeOH or MeCN gradients (0.1% FA), scale of the general procedure 50.0 μmol, run 1) was over 95%. For the same substance, the “final LC-MS purity” value (LC-MS analysis with MeOH or MeCN gradients (0.1% FA), scale of the general procedure 50.0 μmol, run 2) was over 98% and the isolated yield (scale of the general procedure 50.0 μmol) was 13%.
